These are yes or no findings as the source states them, for the method shown. In cells and extracts the contact can be indirect. Some results given as binding are weak or reduced against the parent protein; the word gives no strength.
Experiments:
GFP-Smad3 = GFP-Smad3 (UniProt P84022); test: co-IP; HEK 293 cells stably expressing the GFP fusion, with or without Activin for 1 hr; lysed in cold RIPA buffer; GFP antibody with Protein-G Sepharose beads, 4 °C overnight; blot with anti-Smad4
Flag-Smad3 = Flag-Smad3 (UniProt P84022); test: co-IP; HEK 293 cells transiently transfected with the Flag fusion, stimulated with Activin for 1 hr; lysed in RIPA buffer; anti-Flag M2 beads, 4 °C overnight; blot with anti-Smad4

By UniProt entry, the sequences of proteins in these tests, tags left out.
UniProt P84022: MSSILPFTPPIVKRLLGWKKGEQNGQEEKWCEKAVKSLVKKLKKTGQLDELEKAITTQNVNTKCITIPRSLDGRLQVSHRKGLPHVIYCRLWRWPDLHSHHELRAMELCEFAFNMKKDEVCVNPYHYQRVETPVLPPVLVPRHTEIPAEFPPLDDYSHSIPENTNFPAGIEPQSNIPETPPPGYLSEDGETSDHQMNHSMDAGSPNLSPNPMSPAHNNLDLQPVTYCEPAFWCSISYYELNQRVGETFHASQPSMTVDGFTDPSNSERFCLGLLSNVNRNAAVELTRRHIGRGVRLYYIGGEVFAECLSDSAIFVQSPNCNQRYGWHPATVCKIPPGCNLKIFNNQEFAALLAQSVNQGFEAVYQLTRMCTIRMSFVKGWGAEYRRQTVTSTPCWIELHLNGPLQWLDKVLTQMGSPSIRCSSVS
UniProt Q13485: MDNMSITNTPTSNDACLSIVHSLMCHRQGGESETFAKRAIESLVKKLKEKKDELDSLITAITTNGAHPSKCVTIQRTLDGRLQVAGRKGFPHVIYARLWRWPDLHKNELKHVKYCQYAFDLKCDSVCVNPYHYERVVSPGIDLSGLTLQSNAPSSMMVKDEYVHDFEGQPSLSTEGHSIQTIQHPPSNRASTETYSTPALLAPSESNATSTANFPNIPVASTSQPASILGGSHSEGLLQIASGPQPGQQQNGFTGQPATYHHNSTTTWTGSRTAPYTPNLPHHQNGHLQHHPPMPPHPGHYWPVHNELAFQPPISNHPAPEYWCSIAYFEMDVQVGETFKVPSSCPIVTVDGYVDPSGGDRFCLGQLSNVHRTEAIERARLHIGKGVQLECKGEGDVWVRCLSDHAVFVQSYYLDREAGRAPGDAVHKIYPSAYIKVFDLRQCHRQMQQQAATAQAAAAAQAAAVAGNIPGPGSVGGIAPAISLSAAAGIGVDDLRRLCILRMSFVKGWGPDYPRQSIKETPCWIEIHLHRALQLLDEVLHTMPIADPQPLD

binding (GFP-Smad3): binds weakly | binding (Flag-Smad3): binds weakly
Substance: Smad4 (from UniProt Q13485 1-552)
